# Laboratory results reported in PubChem BioAssay AID743255 (National Center for Advancing Translational Sciences (NCATS), 2014).
# The chains behind the UniProt entries cited, without tags or fusion partners. Where a name states a change or a piece, a line headed by the entry shows the natural chain unless it says otherwise.
# UniProt O94782: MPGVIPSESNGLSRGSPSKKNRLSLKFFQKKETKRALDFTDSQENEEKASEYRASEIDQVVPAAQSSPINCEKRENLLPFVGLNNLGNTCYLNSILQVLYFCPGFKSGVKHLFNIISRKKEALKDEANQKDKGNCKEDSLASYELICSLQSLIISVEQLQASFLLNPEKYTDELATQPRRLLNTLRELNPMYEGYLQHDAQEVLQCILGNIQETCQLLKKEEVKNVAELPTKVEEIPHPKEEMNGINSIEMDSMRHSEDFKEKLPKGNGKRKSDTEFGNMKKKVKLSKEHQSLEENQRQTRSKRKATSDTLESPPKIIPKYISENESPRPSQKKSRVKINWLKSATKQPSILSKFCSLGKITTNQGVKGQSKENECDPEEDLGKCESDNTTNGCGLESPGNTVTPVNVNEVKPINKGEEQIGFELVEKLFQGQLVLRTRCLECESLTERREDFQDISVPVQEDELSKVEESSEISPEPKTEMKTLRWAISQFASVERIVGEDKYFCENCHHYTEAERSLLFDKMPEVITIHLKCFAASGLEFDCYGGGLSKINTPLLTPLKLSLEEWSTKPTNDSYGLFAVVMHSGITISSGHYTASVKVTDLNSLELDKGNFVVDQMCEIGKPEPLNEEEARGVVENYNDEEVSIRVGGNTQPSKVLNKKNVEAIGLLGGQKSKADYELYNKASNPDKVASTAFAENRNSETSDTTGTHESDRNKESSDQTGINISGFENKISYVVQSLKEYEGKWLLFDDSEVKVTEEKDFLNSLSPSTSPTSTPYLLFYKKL
# The whole screen tested about 390,000 compounds, of which about 910 (0.23%) were called active. The shares of active, inactive and inconclusive entries below differ from those in the screen. Calls come from the whole dose curve; as a rule, active = well fitted inhibition curve with a large enough effect; inconclusive = small, poorly fitted or top-dose-only effect; inactive = no such curve, though single readings can be large or run the other way. Potencies beside an inconclusive call are fits to weak or partial responses and may not hold up.
# Target: Ubiquitin carboxyl-terminal hydrolase 1 (Homo sapiens) (UniProt O94782)
# Test: Inhibitors of USP1/UAF1: Primary Screen; note: nearly all actives have a fitted effect of over 60% in size
# Conditions: recombinant USP1/UAF1, Ub-Rhodamine cleavage fluorescence; activity change, negative = inhibition: at 57.1 µM (top of the series)
# Method in brief: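 Step one: compound is pinned into 1nM USP1/UAF1 in HEPES pH 7.8 buffer with TCEP. Step two: 15 min room-temperature incubation. Step three: Ub-Rho (150nM final) starts cleavage, tracked by fluorescence over six one-minute reads.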
# % is set by controls: 0 for no effect and ±100 for the full control effect; potency is the fitted concentration of half-maximal effect.
SMILES,Potency,"activity change, negative = inhibition"
CC(C)Oc1ccc(Nc2ncnc3ccccc23)cc1,inactive,–
CC(=O)Nc1ccc(C(=O)Nc2ccc(S(=O)(=O)N3CCOCC3)cc2)cc1,inactive,–
CCOC(=O)C1(Cc2ccc(OC)cc2)CCN(S(C)(=O)=O)CC1,inactive,–
CCC1CN2CCc3cc(OC)c(OC)cc3C2CC1CC1c2cc(OC)c(OC)cc2CCN1C(=O)C(Cc1c[nH]c2ccccc12)NC(=O)OC(C)(C)C (stereo unspecified),"inconclusive: 39.8 µM [inhibitor, single point]",–
CCOC(=O)c1ccccc1NC(=O)Cn1ccn2nc(-c3ccc(OCC)cc3)cc2c1=O,inactive,–
Cc1ccc(CN2CCN(C(=O)c3cccc4ccccc34)CC2)cc1,inactive,–
CN1CC(=O)Nc2cc(C(=O)O)ccc21,"inconclusive: 0.282 µM [inhibitor, full curve, poor fit]",–
CCN(CC)c1ccc(NS(=O)(=O)c2cc(-c3cc(C)no3)ccc2C)c(C)c1,"inconclusive: 0.251 µM [inhibitor, full curve, poor fit]",–
CCNc1nc2c(c(=O)[nH]c(=O)n2C)n1CC(C)C,"inconclusive: 44.7 µM [inhibitor, partial curve, poor fit]",–
Cc1cccc([C@@H](NC(=O)OC(C)(C)C)C(=O)OC(C)(C)C)c1,"inconclusive: 5.62 µM [inhibitor, partial curve, poor fit]",–
Nc1ccc(CCc2ccc(N)cc2)cc1,"inconclusive: 11.2 µM [inhibitor, single point]",–
COc1ccc(Cc2nc3c4cnn(-c5cccc(F)c5)c4ncn3n2)cc1,"inconclusive: 0.282 µM [inhibitor, full curve, poor fit]",–
Cc1nn(CC(=O)NC2CCS(=O)(=O)C2)c(C)c1[N+](=O)[O-] (stereo unspecified),"inconclusive: 8.91 µM [inhibitor, partial curve]",–
Cc1ccc(/C=N/Nc2ccnc3cc(Cl)ccc23)c(C)c1,inactive,–
CCOc1cc(/C=C2/NC(=O)N(Cc3ccccc3F)C2=O)ccc1O,inactive,–
Cc1cccnc1NC(=O)Cn1nc([N+](=O)[O-])cc1C,"inconclusive: 0.562 µM [inhibitor, full curve, poor fit]",–
CCOC(=O)N1CCN(c2ccc(S(=O)(=O)N(Cc3ccccc3)Cc3ccccc3)cn2)CC1,inactive,–
N#Cc1ccc(S(=O)(=O)NC2CC2)cc1,"inconclusive: 1.58 µM [inhibitor, partial curve]",–
C/C(=N/Nc1ccnc2cc(Cl)ccc12)c1ccc(N)cc1,inactive,–
CC(C)CCNC(=O)c1onc(CSc2ccc(Cl)cc2)c1C(=O)NCCC(C)C,"inconclusive: 25.1 µM [inhibitor, single point]",–
Cc1ccc(CNC(=O)c2ccc(CN3CC(=O)N4CCCCC4C3=O)cc2)cc1 (stereo unspecified),inactive,–
COc1cc(NC(=O)c2nc3nc(C)cc(C(F)F)n3n2)c(OC)cc1Cl,"inconclusive: 11.2 µM [inhibitor, full curve, poor fit]",–
O=C(Nc1ccc(-c2csc(Nc3ccc(Cl)cc3)n2)cc1)c1cc([N+](=O)[O-])cc(C(F)(F)F)c1,"inconclusive: 10 µM [inhibitor, partial curve]",–
CCOc1cc(Br)c(Br)c(C=Nc2ccc(NC(C)=O)cc2)c1O,inactive,–

# No new results follow: an excerpt of the list.
SMILES,Potency,"activity change, negative = inhibition"
CCOC(=O)C1(Cc2ccc(OC)cc2)CCN(S(C)(=O)=O)CC1,inactive,–
CCC1CN2CCc3cc(OC)c(OC)cc3C2CC1CC1c2cc(OC)c(OC)cc2CCN1C(=O)C(Cc1c[nH]c2ccccc12)NC(=O)OC(C)(C)C (stereo unspecified),"inconclusive: 39.8 µM [inhibitor, single point]",–

# Additional entries.

SMILES,Potency,"activity change, negative = inhibition"
Cc1cccc(-n2cc(-c3ccccc3)c3c(=O)[nH]cnc32)c1,inactive,–
COc1cccc(NC(=O)CN2CCN(S(=O)(=O)c3ccc(C(C)C)cc3)CC2)c1,inactive,–
CCN1C(=O)N(C)[C@@H](c2ccccc2)C(C(=O)OC)=C1C,–,inconclusive: -15.1% [inhibitor]
COCCn1c(C)c(C)c(S(=O)(=O)c2ccccc2)c1N,"inconclusive: 35.5 µM [inhibitor, partial curve]",–
CC(C)CCNC(=O)Cn1c(-c2cccs2)cc2cc(F)ccc21,"inconclusive: 7.94 µM [inhibitor, partial curve]",–
Cc1cc(Br)ccc1NC(=O)c1sc2nc3n(c(=O)c2c1C)CCCC3,"inconclusive: 3.98 µM [inhibitor, partial curve]",–
NC(=O)c1c(NC(=O)c2cc3ccccc3o2)sc2c1CCC2,inactive,–
COc1ccc(CCNC(=O)CCC(=O)N2CCOc3ccccc32)cc1OC,inactive,–
CCOC(=O)COc1ccc2ccccc2c1/C=C/[N+](=O)[O-],inactive,–
COc1cc(C(=O)ON=C2C=C(C)C(=O)C(C)=C2)cc(OC)c1OC,inactive,–
O=C(COc1ccc2ccccc2c1)Nc1ccc(Cc2ccncc2)cc1,"inconclusive: 31.6 µM [inhibitor, single point]",–
Cc1cc(NCc2ccccn2)n2ncc(-c3ccc(Cl)cc3)c2n1,"inconclusive: 44.7 µM [inhibitor, partial curve, poor fit]",–
CCCCN(CC)c1nc(-c2ccccc2F)nc2ccccc12,inactive,–
COc1cc2ccccc2cc1C(=O)NC(=S)Nc1ccc(C(=O)O)cc1,inactive,–
O=C(Cn1cc(SCc2c(F)cccc2Cl)c2ccccc21)N1CCCC1,inactive,–
COc1cccc(CNC(=O)C(C)n2c(=O)cc(-c3ccccc3)c3c(C)nn(C)c32)c1 (stereo unspecified),"inconclusive: 0.708 µM [inhibitor, full curve, poor fit]",–
CCOC(=O)Cn1c(=O)oc2cc(S(=O)(=O)N(C)Cc3ccccc3)ccc21,"inconclusive: 50.1 µM [inhibitor, partial curve, poor fit]",–
CC(=O)N1CCN(c2ccc(NC(=S)NC(=O)COc3ccc(C(C)(C)C)cc3)cc2)CC1,inactive,–
CC1=NN(C(N)=S)C(=O)C1N=Nc1c(C)cc(C)cc1C (stereo unspecified),inactive,–
C=CCN(c1ccccc1OC)S(=O)(=O)c1cccc(C(=O)OCC(=O)c2c[nH]c3ccccc23)c1,inactive,–
CCc1ccccc1NC(=O)Cn1c(=O)n(Cc2ccc(OC)cc2)c(=O)c2oc3ccccc3c21,"inconclusive: 3.16 µM [inhibitor, single point]",–
COc1ccc(NC(=O)C2CCCN(c3nnc(C)c4c(C)n(-c5ccccc5)nc34)C2)cc1Cl (stereo unspecified),inactive,–
Cc1ccc(Sc2c([N+](=O)[O-])c(C)nn2C)cc1,"inconclusive: 7.08 µM [inhibitor, single point]",–
CN(C)S(=O)(=O)N1CCN(S(=O)(=O)N2CCOCC2)CC1,"inconclusive: 31.6 µM [inhibitor, partial curve]",–

# 20 entries from above, with tabs:
SMILES	Potency	activity change, negative = inhibition
Cc1cccc(-n2cc(-c3ccccc3)c3c(=O)[nH]cnc32)c1	inactive	–
COc1cccc(NC(=O)CN2CCN(S(=O)(=O)c3ccc(C(C)C)cc3)CC2)c1	inactive	–
COCCn1c(C)c(C)c(S(=O)(=O)c2ccccc2)c1N	inconclusive: 35.5 µM [inhibitor, partial curve]	–
CC(C)CCNC(=O)Cn1c(-c2cccs2)cc2cc(F)ccc21	inconclusive: 7.94 µM [inhibitor, partial curve]	–
Cc1cc(Br)ccc1NC(=O)c1sc2nc3n(c(=O)c2c1C)CCCC3	inconclusive: 3.98 µM [inhibitor, partial curve]	–
NC(=O)c1c(NC(=O)c2cc3ccccc3o2)sc2c1CCC2	inactive	–
COc1ccc(CCNC(=O)CCC(=O)N2CCOc3ccccc32)cc1OC	inactive	–
CCOC(=O)COc1ccc2ccccc2c1/C=C/[N+](=O)[O-]	inactive	–
COc1cc(C(=O)ON=C2C=C(C)C(=O)C(C)=C2)cc(OC)c1OC	inactive	–
O=C(COc1ccc2ccccc2c1)Nc1ccc(Cc2ccncc2)cc1	inconclusive: 31.6 µM [inhibitor, single point]	–
CCCCN(CC)c1nc(-c2ccccc2F)nc2ccccc12	inactive	–
COc1cc2ccccc2cc1C(=O)NC(=S)Nc1ccc(C(=O)O)cc1	inactive	–
COc1cccc(CNC(=O)C(C)n2c(=O)cc(-c3ccccc3)c3c(C)nn(C)c32)c1 (stereo unspecified)	inconclusive: 0.708 µM [inhibitor, full curve, poor fit]	–
CCOC(=O)Cn1c(=O)oc2cc(S(=O)(=O)N(C)Cc3ccccc3)ccc21	inconclusive: 50.1 µM [inhibitor, partial curve, poor fit]	–
CC(=O)N1CCN(c2ccc(NC(=S)NC(=O)COc3ccc(C(C)(C)C)cc3)cc2)CC1	inactive	–
CC1=NN(C(N)=S)C(=O)C1N=Nc1c(C)cc(C)cc1C (stereo unspecified)	inactive	–
C=CCN(c1ccccc1OC)S(=O)(=O)c1cccc(C(=O)OCC(=O)c2c[nH]c3ccccc23)c1	inactive	–
CCc1ccccc1NC(=O)Cn1c(=O)n(Cc2ccc(OC)cc2)c(=O)c2oc3ccccc3c21	inconclusive: 3.16 µM [inhibitor, single point]	–
COc1ccc(NC(=O)C2CCCN(c3nnc(C)c4c(C)n(-c5ccccc5)nc34)C2)cc1Cl (stereo unspecified)	inactive	–
Cc1ccc(Sc2c([N+](=O)[O-])c(C)nn2C)cc1	inconclusive: 7.08 µM [inhibitor, single point]	–

# Further structures

SMILES,Potency,"activity change, negative = inhibition"
Nc1ccc2[nH]ncc2c1,"inconclusive: 44.7 µM [inhibitor, partial curve]",–
CC(C)Nc1ccc(C(CC(N)=O)NC(=O)c2ccc(Br)cc2)cc1[N+](=O)[O-] (stereo unspecified),"inconclusive: 0.282 µM [inhibitor, full curve, poor fit]",–
CCN(CC)c1ccc(NC(=O)C2CCN(S(=O)(=O)c3cnc[nH]3)CC2)c(C)c1,"inconclusive: 8.91 µM [inhibitor, partial curve, poor fit]",–
Cc1oc2c(C)c3oc(=O)c(CCC(=O)NCCCn4ccnc4)c(C)c3cc2c1C,"inconclusive: 0.112 µM [inhibitor, full curve, poor fit]",–
CN(C)S(=O)(=O)c1ccc(C(=O)NCCSc2c(-c3ccc(Cl)cc3)[nH]c3ccccc23)cc1,"inconclusive: 316 µM [inhibitor, partial curve, poor fit]",–
Cc1cccc(OCC(=O)Nc2cccc3cccnc23)c1C,inactive,–
Cc1cccc(Cn2nc(C(C)(C)C)cc2C(=O)Nc2ccc(F)cc2)c1,"inconclusive: 10 µM [inhibitor, partial curve]",–
COc1ccc(CCNC(=O)c2ccc3nc(-c4ccco4)c(-c4ccco4)nc3c2)cc1OC,inactive,–
CC(=O)N1CCCc2cc(S(=O)(=O)N3CCCC(C(=O)Nc4ccc(F)cc4F)C3)ccc21 (stereo unspecified),inactive,–
CNC(=O)c1nc(C)n(-c2ccc(Cl)cc2Cl)n1,inactive,–
Cc1ccc(NS(=O)(=O)c2ccc3c(c2)C(=O)c2ccccc2C3=O)c(C)c1,inactive,–
CCC(CO)Oc1cc(NC(=O)c2cccc(OC)c2)c2ncn(C(C)C)c2c1 (stereo unspecified),"inconclusive: 3.98 µM [inhibitor, full curve]",–
CC(C)C[C@H](NC(=O)c1nc[nH]c1C(=O)NC1CCN(C(=O)OC(C)(C)C)CC1)C(=O)OCc1ccccc1,"inconclusive: 20 µM [inhibitor, partial curve]",–
Cc1c(NC(=O)c2cc(-c3ccc(F)cc3)nc3ccccc23)c(=O)n(-c2ccccc2)n1C,"inconclusive: 28.2 µM [inhibitor, partial curve]",–
CC1CCCCC1NC(=O)CSc1nncn1N (stereo unspecified),inactive,–
Cc1ccc(SCC(=O)N2CCN(S(=O)(=O)c3cccs3)CC2)cc1,"inconclusive: 8.91 µM [inhibitor, partial curve, poor fit]",–
O=C1c2cccc3cccc(c23)C(=O)N1c1cccnc1,inactive,–
COc1ccc(-c2cc(C(F)(F)F)c(C#N)c(SCC(=O)Nc3cccc(C)c3)n2)cc1,"inconclusive: 5.62 µM [inhibitor, partial curve]",–
CCN(CC)CCNC(=O)c1cc2c(-c3ccc(Cl)cc3)nn(C)c2s1,"inconclusive: 0.355 µM [inhibitor, full curve, poor fit]",–
COc1ccc(CNc2nc(-c3ccccc3)nc3ccccc23)cc1OC,"inconclusive: 79.4 µM [inhibitor, partial curve, poor fit]",–
COc1ccc(NC(=O)c2ccco2)cc1NC(=O)c1cccc(C)c1OC,"inconclusive: 0.1 µM [inhibitor, full curve, poor fit]",–
CC(C)OC(=O)c1c2c(n3ccccc13)C(=O)c1ccccc1C2=O,active: 28.2 µM,–
Cc1cc(O)c(C(C[N+](=O)[O-])c2ccc(Cl)cc2)c(=O)o1 (stereo unspecified),inactive,–
